# Among all 580,000 compounds or so, about 6,100 (1.1%) were called active. The shares of active, inactive and inconclusive entries below differ from those in the screen. The call rests on the fitted dose curve; in most records, active means well fitted inhibition curve with a large enough effect; inconclusive means small, poorly fitted or top-dose-only effect, or another doubt; inactive means no such curve, though single readings can be large or run the other way. A potency beside an inconclusive call is a rough fit, not a confirmed value.
# By UniProt entry, the sequences of proteins in these tests, tags left out.
# UniProt P18054, whole entry, looked up: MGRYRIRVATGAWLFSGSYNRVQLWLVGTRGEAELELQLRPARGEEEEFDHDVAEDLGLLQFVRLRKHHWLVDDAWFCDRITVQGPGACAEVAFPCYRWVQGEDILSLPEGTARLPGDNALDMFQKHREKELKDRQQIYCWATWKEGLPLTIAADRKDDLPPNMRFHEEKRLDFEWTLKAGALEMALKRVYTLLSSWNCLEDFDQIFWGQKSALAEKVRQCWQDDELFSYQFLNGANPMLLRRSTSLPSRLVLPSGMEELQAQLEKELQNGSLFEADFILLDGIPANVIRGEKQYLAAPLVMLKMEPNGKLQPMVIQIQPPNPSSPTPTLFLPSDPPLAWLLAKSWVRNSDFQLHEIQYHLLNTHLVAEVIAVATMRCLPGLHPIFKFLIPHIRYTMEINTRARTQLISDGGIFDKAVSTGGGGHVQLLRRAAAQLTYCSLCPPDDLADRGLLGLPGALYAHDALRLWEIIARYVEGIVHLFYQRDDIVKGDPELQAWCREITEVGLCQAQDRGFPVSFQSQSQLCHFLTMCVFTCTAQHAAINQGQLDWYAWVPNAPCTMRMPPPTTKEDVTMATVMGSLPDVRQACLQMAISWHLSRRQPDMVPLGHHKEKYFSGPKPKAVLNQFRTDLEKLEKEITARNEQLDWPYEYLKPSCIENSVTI
# Biological target: Polyunsaturated fatty acid lipoxygenase ALOX12 (Homo sapiens) (UniProt P18054)
# Test: Primary qHTS assay for inhibitors of human arachidonate 12S-lipoxygenase (ALOX12): Round 2
# Conditions: purified 12hLO, xylenol orange hydroperoxide absorbance; activity change, negative = inhibition: at 108 µM (top of the series) unless noted
# Method in brief: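 Hydroperoxide product was detected by ferrous iron/xylenol orange as the 573 to 405 nm absorbance ratio. Arachidonic acid at 40 uM (final) was turned over for 30 min at room temperature by 150 nM human 12hLO, pH 7.0 Hepes buffer, after 15 min compound preincubation.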
# On the % scale 0 is the no-effect control and ±100 the full control effect; potency means the concentration at half of the fitted maximal effect.
Structure (SMILES),Potency,"activity change, negative = inhibition"
CN1CCN(S(=O)(=O)c2cccc(C(=O)Nc3cc(Cl)ccc3N3CCOCC3)c2)CC1,"inconclusive: 126 µM [inhibitor, partial curve, poor fit]",–
CCc1ccc(-c2csc(NC(=O)c3nn(C)c(=O)c4ccccc34)n2)cc1,–,inactive: 3.27%
O=C(c1ccco1)N1CCN(Cc2ccc(F)cc2)CC1,"inconclusive: 0.282 µM [inhibitor, full curve, poor fit]",–
COc1ccccc1Nc1nc(-c2sc(N)nc2C)cs1,"inconclusive: 50.1 µM [inhibitor, partial curve, poor fit]",–
COc1ccc(-c2nc(CNC(=O)Nc3cc(OC)ccc3OC)c(C)o2)cc1,"inconclusive: 126 µM [inhibitor, single point]",–
CCOc1ccc(NC(=O)c2c(Nc3ccccc3C)sc(C(=O)c3ccc(Cl)cc3)c2N)cc1,–,inactive: -15.4%
Nc1ccc(C(=O)OCCCc2nc3ccccc3[nH]2)cc1,–,inactive: 0%
O=C(NNc1cc(Cl)ccc1Cl)c1cccs1,"inconclusive: 31.6 µM [inhibitor, partial curve, poor fit]",–
OCC1(CCc2ccccc2)CCCN(CCCc2ccccc2)C1 (configuration not stated),"inconclusive: 39.8 µM [inhibitor, partial curve, poor fit]",–
COc1ccc(C(=O)NS(C)(=O)=O)cc1F,"inconclusive: 56.2 µM [inhibitor, full curve, poor fit]",–
CC(C)N(Cc1ccccc1)C(=O)CN1C(=O)NC2(CCCc3ccccc32)C1=O (configuration not stated),"inconclusive: 0.251 µM [inhibitor, full curve, poor fit]",–
COc1cc(-c2cnc3c(NC=O)cc(-c4ccccc4Cl)cn23)cc(OC)c1OC,–,inconclusive: -31% [inhibitor]
Cc1ccc(CNc2ccc(N3CCOCC3)cc2)s1,"inconclusive: 44.7 µM [inhibitor, partial curve]",–
C/C=C/c1ccc(OCC(O)CNCCc2ccc(OC)cc2)c(OC)c1 (configuration not stated),"inconclusive: 14.1 µM [inhibitor, full curve, poor fit]",–
COc1ccc(NS(=O)(=O)c2ccc(N3CCCC3)c(NC(=S)Nc3cccc(C)c3C)c2)cc1,active: 15.8 µM,–
COc1ccc2[nH]cc(CCNc3ccnc(-c4ccccc4C)n3)c2c1,"inconclusive: 100 µM [inhibitor, partial curve, poor fit]",–
COc1cccc(C(=O)N2CCN(C3CCC(c4ccccc4)CC3)CC2)c1 (configuration not stated),"inconclusive: 4.47 µM [inhibitor, full curve, poor fit]",–
Cc1ccc(Cn2ccsc2=NC(=O)COC(=O)c2ccc(NC(=O)CC#N)cc2)cc1,–,inactive: 8.18%
Cc1ccc(NC(=O)CN2C(=O)NC(Cc3c[nH]c4ccccc34)C2=O)cc1 (configuration not stated),"inconclusive: 70.8 µM [inhibitor, single point]",–
CCOC(=O)C1(CCOc2ccccc2)CCN(Cc2cccn2-c2cccnc2)CC1,–,inactive: -8.75%
CCN(Cc1cc2cc(C)ccc2[nH]c1=O)S(C)(=O)=O,–,inactive: -0.621%
COc1ccc(C(=O)CSc2ncn[nH]2)cc1OC,"inconclusive: 39.8 µM [inhibitor, partial curve, poor fit]",–
Cc1ccc(C)c(S(=O)(=O)N2CCCCC2CCNC(=O)C(=O)NC2CC2)c1 (configuration not stated),–,inactive: -2.34%

Structure (SMILES),Potency,"activity change, negative = inhibition"
COc1cc(NC(=O)Nc2nnc([C@H]3C[C@H](O)[C@@H](CO)O3)s2)cc(OC)c1OC,"inconclusive: 100 µM [inhibitor, partial curve, poor fit]",–
O=C(Nc1cccc(S(=O)(=O)N2CCCCC2)c1)c1ccccc1NS(=O)(=O)c1ccc(F)cc1,–,inactive: -9.29%
CSc1nc2nc(C)c(CCC(=O)OCC(=O)Nc3ccc(F)cc3)c(C)n2n1,–,inactive: -29.6%
O=C(NC(c1ccc(Cl)cc1)c1cccnc1)C1CCCCC1 (configuration not stated),"inconclusive: 112 µM [inhibitor, single point]",–
Cc1nn(-c2ccccc2)c(Oc2ccc(F)cc2F)c1CCC(=O)NCC1CCCO1 (configuration not stated),"inconclusive: 14.1 µM [inhibitor, partial curve, poor fit]",–
CCN(CC)C(=O)C1CCCN(Cc2ccc(F)c(F)c2)C1 (configuration not stated),"inconclusive: 0.224 µM [inhibitor, full curve, poor fit]",–
O=C(Nc1ccc(F)cc1)N(Cc1cccc(O)c1)C1CC1,–,inactive: 11%
COc1cccc(CNC(=O)c2sc3nc(C)cc(C)c3c2-n2cccc2)c1OC,"inconclusive: 44.7 µM [inhibitor, partial curve, poor fit]",–
COc1ccc(NC(=O)CN(C)C(=O)c2ccc3ccccc3n2)cc1,–,inactive: -0.0999%
COCC1CN(C(=O)c2nccn2C)CC12CCNCC2 (configuration not stated),–,inactive: 7.05%
CCn1c(CC(=O)Nc2ccccc2F)nnc1SCC(=O)Nc1nncs1,"inconclusive: 0.251 µM [inhibitor, full curve, poor fit]",–
CCOc1ccc(N2C(=O)C3Sc4[nH]c(=O)sc4C(c4ccc(OC)c(OC)c4)C3C2=O)cc1 (configuration not stated),"inconclusive: 126 µM [inhibitor, single point]",–
Cc1ccccc1CCNC(=O)Cc1nn(C)c(=O)c2ccccc12,"inconclusive: 14.1 µM [inhibitor, partial curve, poor fit]",–
O=C1CO[C@H]2CCN(Cc3cccc(OC(F)(F)F)c3)CC[C@@H]2N1Cc1ccccc1,"inconclusive: 10 µM [inhibitor, full curve, poor fit]",–
CCOC(=O)COc1ccc(CC)cc1C(=O)c1ccn2nc(-c3ccccc3)cc2n1,"inconclusive: 35.5 µM [inhibitor, partial curve, poor fit]",–
COc1ccccc1C1CCN(Cc2ccc(Cl)c(Cl)c2)CC1,"inconclusive: 89.1 µM [inhibitor, partial curve, poor fit]",–
O=C(O)C1=C[C@H](C2CC2)C[C@H](OCCCCO)O1,"inconclusive: 5.62 µM [inhibitor, full curve, poor fit]",–
O=c1oc2ccccc2c(N2CCCC2)c1NS(=O)(=O)c1cccc(F)c1,"inconclusive: 141 µM [inhibitor, single point]",–
Cc1ccc(CSC2=Nc3ccccc3C3=NC(CCC(=O)NCc4ccco4)C(=O)N23)cc1 (configuration not stated),"inconclusive: 2.24 µM [inhibitor, full curve, poor fit]",–
O=[N+]([O-])c1cccc(N/N=C/c2ccc(Br)cc2)c1,"inconclusive: 126 µM [inhibitor, partial curve, poor fit]",–
Cc1ccc(-n2c(C3CCN(C(=O)c4ccccc4Cl)CC3)n[nH]c2=O)cc1,"inconclusive: 39.8 µM [inhibitor, partial curve]",–
COC(=O)C(Cc1c[nH]c2ccccc12)NC(=O)COc1cccc(C)c1 (configuration not stated),"inconclusive: 39.8 µM [inhibitor, partial curve, poor fit]",–
COCCNC(=O)CCn1c(=O)c2cc(OC)c(OC)cc2n(CC(=O)Nc2ccc(Cl)cc2F)c1=O,"inconclusive: 50.1 µM [inhibitor, partial curve, poor fit]",–

Structure (SMILES),Potency,"activity change, negative = inhibition"
Cc1noc(-c2ccc(OC(F)(F)F)cc2)c1C(=O)NCCCOC(C)C,–,inactive: 25%
Cc1nn(S(=O)(=O)c2ccc(C(C)(C)C)cc2)c(C)c1S(=O)(=O)N1CCCCCC1,–,inactive: 0%
Cn1c(CNc2cccc(Br)c2)c(C#N)c2ccccc21,–,inactive: -8.67%
O=C(O)CCc1ccc(S(=O)(=O)Nc2ccc3c(c2)CCC3)cc1,–,inactive: 4.54%
O=C(NC1(O)C(=O)c2ccccc2C1=O)c1c(Cl)cccc1Cl,"inconclusive: 141 µM [inhibitor, partial curve, poor fit]",–
COC(=O)c1ccccc1NC(=O)Cc1ccccc1OC,"inconclusive: 50.1 µM [inhibitor, partial curve, poor fit]",–
O=C1C=CC(=O)c2c(O)c(N3CCN(CCOCCO)CC3)c(Br)c(O)c21,"inconclusive: 15.8 µM [inhibitor, full curve]",–
CCOC(=O)CNC(=O)NCc1cccn1Cc1ccccc1C,–,inactive: -5.75%
COc1ccc(-c2noc([C@@H](C)NCC3CCCCC3)c2C(=O)O)cc1,"inconclusive: 7.08 µM [inhibitor, full curve]",–
CCN(CC(=O)Nc1ccc(OC)cc1)C(=O)c1ccc2ccccc2c1,"inconclusive: 0.224 µM [inhibitor, full curve, poor fit]",–
CN1CCN(C(=O)N2CCCC(CNS(=O)(=O)c3cccs3)C2)CC1 (configuration not stated),"inconclusive: 1.12 µM [inhibitor, full curve]",–
O=S(=O)(c1ccc2c(c1)OCCO2)c1nc(-c2ccccc2F)oc1NCCN1CCOCC1,"inconclusive: 35.5 µM [inhibitor, partial curve, poor fit]",–
O=C1NN(c2ccc(Cl)cc2)C(=O)/C1=C\c1ccc(-c2cccc(C(=O)O)c2)o1,active: 39.8 µM,–
CC1CCC(NC(=O)C23CC4CC(CC(C4)C2)C3)CC1 (configuration not stated),–,inactive: 23.4%
S=c1[nH]nc(-c2ccncc2)n1Cc1ccccc1,"inconclusive: 31.6 µM [inhibitor, partial curve, poor fit]",–
CC(=O)Nc1ccc(NC(=O)CC(c2ccccc2)c2ccccc2)cc1,"inconclusive: 25.1 µM [inhibitor, full curve, poor fit]",–
Cc1ccc(-c2ccc(=O)n(CC(=O)Nc3ccc(C)cc3Cl)n2)cc1,–,inactive: -5.41%
Cc1ccc(C)c(-n2nnnc2SCC(=O)Nc2cc(C)nn2-c2ccccc2C)c1,–,inactive: 11.9%
Cc1ccc(NC(=O)Cc2nn(C)c(=O)c3ccccc23)cc1C,–,inactive: 1.74%
CCNC(=S)Nc1cccc(S(=O)(=O)NC2=NCCC2)c1,–,inactive: -3.28%
Cc1ccc(S(=O)(=O)ON=C2CCN(S(=O)(=O)c3ccccc3)CC2)cc1,"inconclusive: 22.4 µM [inhibitor, single point]",–

# A few values from the results shown.
# activity change, negative = inhibition with Cc1ccc(-c2ccc(=O)n(CC(=O)Nc3ccc(C)cc3Cl)n2)cc1 reads inactive: -5.41%
# Potency with O=C1NN(c2ccc(Cl)cc2)C(=O)/C1=C\c1ccc(-c2cccc(C(=O)O)c2)o1 reads active: 39.8 µM
